Reference: PubChem BioAssay AID1259424 (University of Nebraska Medical Center, 2018)
This is one part, drawn at random, of about 14,000 reagents. 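Higher correlation or smaller distance means closer resemblance to KSR1 loss; control wells, including KSR1 knockdowns, recur on many plates.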 The numbers tell different reagents against one gene apart. Further read-outs or replicates are left out here. Not given: the time to read-out.

- Purpose: 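Seek colon cancer survival genes behaving like KSR1, using a six-gene signature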 (primary screen)
- System: human HCT116 colon cancer cells
- Knock-down reagent: siRNA pool against human genes, 50 nM
- Detection: 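Six signature mRNAs by branched-DNA multiplex assay, scaled to two housekeeping genes and non-targeting median, log2; matched to mean KSR1 knockdown profile by Pearson correlation and euclidean distance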
- Scale: mean correlation with KSR1 profile: higher = expression change more like KSR1 knockdown; mean distance from KSR1 profile: higher = expression change less like KSR1 knockdown

For EHD2, what was measured?
mean correlation with KSR1 profile: -0.318; mean distance from KSR1 profile: 1.86

With CCDC142, what was measured?
mean correlation with KSR1 profile: 0.878; mean distance from KSR1 profile: 1.83

Which result is listed for NRBP1?
mean correlation with KSR1 profile: 0.404; mean distance from KSR1 profile: 1.34

How did the screen score TRAF3IP2?
mean correlation with KSR1 profile: 0.186; mean distance from KSR1 profile: 1.68

Which result is listed for TRUB2?
mean correlation with KSR1 profile: 0.757; mean distance from KSR1 profile: 2.23

Which result is listed for HSD17B3?
mean correlation with KSR1 profile: 0.0432; mean distance from KSR1 profile: 1.79

For TMEM98, what was measured?
mean correlation with KSR1 profile: 0.575; mean distance from KSR1 profile: 1.98

For FBXO10, what was measured?
mean correlation with KSR1 profile: -0.517; mean distance from KSR1 profile: 1.52

What did the screen give for SMC1B?
mean correlation with KSR1 profile: 0.472; mean distance from KSR1 profile: 1.71

For MGST2, what was measured?
mean correlation with KSR1 profile: 0.19; mean distance from KSR1 profile: 0.982

With PCDHGA8, how do the results read?
mean correlation with KSR1 profile: 0.265; mean distance from KSR1 profile: 2.97

Laid out differently: entries from further up
Target gene	reagent	mean correlation with KSR1 profile	mean distance from KSR1 profile
TMEM98	1	0.575	1.98
FBXO10	1	-0.517	1.52
SMC1B	1	0.472	1.71
MGST2	1	0.19	0.982

Continued.
How did the screen score TM9SF1?
mean correlation with KSR1 profile: -0.0307; mean distance from KSR1 profile: 1.91

What is on record for CXCR2?
mean correlation with KSR1 profile: 0.669; mean distance from KSR1 profile: 1.41

How did the screen score B3GALNT1?
mean correlation with KSR1 profile: 0.111; mean distance from KSR1 profile: 1.59

What is on record for ECE2 #1?
mean correlation with KSR1 profile: 0.972; mean distance from KSR1 profile: 1.43

For ECE2 #2, what does the deposit list?
mean correlation with KSR1 profile: -0.179; mean distance from KSR1 profile: 2.88

How did the screen score LPAR3?
mean correlation with KSR1 profile: 0.865; mean distance from KSR1 profile: 1.5

How did the screen score DENR?
mean correlation with KSR1 profile: -0.526; mean distance from KSR1 profile: 4.35

With BAAT, what does the deposit list?
mean correlation with KSR1 profile: 0.37; mean distance from KSR1 profile: 2.92

With PCDHB6, what was measured?
mean correlation with KSR1 profile: 0.696; mean distance from KSR1 profile: 1.36

With SC5D, what does the deposit list?
mean correlation with KSR1 profile: -0.471; mean distance from KSR1 profile: 2.88

Which result is listed for TNFSF18?
mean correlation with KSR1 profile: 0.202; mean distance from KSR1 profile: 3.35

With PCDH8, how do the results read?
mean correlation with KSR1 profile: 0.382; mean distance from KSR1 profile: 2.15

What did the screen give for CFL1?
mean correlation with KSR1 profile: -0.333; mean distance from KSR1 profile: 4.02

With API5, what was measured?
mean correlation with KSR1 profile: -0.476; mean distance from KSR1 profile: 2.73

For CENPA, what was measured?
mean correlation with KSR1 profile: -0.244; mean distance from KSR1 profile: 2.86

Which result is listed for LACTB2?
mean correlation with KSR1 profile: 0.181; mean distance from KSR1 profile: 1.28

What is on record for PIP?
mean correlation with KSR1 profile: -0.426; mean distance from KSR1 profile: 2.51
